For five substances, binding results are on record in publication PMC12711092.

No constants are given. Whether binding was seen depends on the method and setting. In cells and extracts the contact can be indirect. Here binding means that the protein was enriched with, or labelled near, the bait; the list need not be complete. Sequences can lack the tags named with a protein.

The target in this test is T1, Chlamydomonas CDKL5-GFP (Chlamydomonas reinhardtii) (UniProt L7S2P1).
T1 sequence: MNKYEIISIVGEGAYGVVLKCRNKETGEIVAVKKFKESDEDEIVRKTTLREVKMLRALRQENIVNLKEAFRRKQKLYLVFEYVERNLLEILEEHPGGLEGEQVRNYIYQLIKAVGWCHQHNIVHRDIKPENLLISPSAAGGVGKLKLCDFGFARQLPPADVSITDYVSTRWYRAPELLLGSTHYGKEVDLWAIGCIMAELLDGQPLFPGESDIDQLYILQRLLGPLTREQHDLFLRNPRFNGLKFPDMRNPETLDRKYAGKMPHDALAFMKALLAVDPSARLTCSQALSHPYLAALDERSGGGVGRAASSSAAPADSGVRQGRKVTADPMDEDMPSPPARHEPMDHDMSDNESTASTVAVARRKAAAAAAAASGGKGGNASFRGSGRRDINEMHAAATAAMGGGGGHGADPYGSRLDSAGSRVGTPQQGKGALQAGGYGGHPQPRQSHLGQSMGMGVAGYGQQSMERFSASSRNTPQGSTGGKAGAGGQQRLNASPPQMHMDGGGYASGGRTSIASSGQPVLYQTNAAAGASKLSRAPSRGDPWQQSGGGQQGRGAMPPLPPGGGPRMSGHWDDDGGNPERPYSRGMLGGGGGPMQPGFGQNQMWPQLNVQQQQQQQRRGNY
Kind of test: affinity purification with mass spectrometry; anti-GFP immunoprecipitation of CDKL5-GFP from whole-cell lysates of lf5 CDKL5-GFP-TG cells, precipitate analysed by MS; untransformed lf5 lysate as control; two independent experiments; details in S1 Text.
With Cre02.g075900.t1.1 (enzyme), the binding result is on record as “binds”.

For Cre12.g499500.t1.1 (enzyme), the binding result was “binds”.

Regarding FAP93, the binding entry is recorded as “binds”.

On to FAP365, for which the binding result is given as “binds”.

For the substance FAP430, the binding entry was “binds”.
